Test results reported in the supplement of paper PMC10849652.
The other results are listed elsewhere or left out.

Sequences of proteins named here, by UniProt entry; tags and fusion partners are left off. A change or cut given only in a name is not applied to a line headed by its entry.
UniProt P46109: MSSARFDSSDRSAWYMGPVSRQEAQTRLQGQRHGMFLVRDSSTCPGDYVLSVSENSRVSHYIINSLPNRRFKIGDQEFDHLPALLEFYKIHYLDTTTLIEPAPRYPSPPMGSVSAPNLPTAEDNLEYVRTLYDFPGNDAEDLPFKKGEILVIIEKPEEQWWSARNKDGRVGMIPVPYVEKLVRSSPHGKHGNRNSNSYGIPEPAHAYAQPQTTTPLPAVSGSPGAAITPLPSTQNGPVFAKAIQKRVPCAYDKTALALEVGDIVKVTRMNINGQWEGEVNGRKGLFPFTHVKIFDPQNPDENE
UniProt P35222, whole entry, looked up: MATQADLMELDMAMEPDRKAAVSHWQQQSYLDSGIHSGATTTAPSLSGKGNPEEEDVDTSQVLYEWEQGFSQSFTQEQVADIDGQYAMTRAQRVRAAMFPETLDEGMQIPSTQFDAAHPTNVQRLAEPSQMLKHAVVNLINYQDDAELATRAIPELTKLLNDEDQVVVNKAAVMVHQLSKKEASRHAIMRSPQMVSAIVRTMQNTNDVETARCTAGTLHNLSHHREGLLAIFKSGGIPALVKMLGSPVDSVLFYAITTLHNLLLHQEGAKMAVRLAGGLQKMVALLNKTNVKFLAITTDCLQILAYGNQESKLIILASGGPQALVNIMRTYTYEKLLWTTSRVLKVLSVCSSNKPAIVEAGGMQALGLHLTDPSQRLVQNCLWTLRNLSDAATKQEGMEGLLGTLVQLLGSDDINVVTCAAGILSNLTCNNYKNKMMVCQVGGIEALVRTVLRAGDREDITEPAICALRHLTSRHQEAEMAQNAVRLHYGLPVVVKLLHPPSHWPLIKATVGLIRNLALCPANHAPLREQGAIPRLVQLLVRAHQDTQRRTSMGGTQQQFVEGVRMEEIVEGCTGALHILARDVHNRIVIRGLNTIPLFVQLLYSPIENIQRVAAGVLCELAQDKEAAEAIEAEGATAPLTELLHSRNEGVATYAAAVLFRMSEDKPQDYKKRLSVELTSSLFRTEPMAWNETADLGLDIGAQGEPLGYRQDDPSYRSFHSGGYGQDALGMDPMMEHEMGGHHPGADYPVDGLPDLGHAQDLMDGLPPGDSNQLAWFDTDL
UniProt Q96C57: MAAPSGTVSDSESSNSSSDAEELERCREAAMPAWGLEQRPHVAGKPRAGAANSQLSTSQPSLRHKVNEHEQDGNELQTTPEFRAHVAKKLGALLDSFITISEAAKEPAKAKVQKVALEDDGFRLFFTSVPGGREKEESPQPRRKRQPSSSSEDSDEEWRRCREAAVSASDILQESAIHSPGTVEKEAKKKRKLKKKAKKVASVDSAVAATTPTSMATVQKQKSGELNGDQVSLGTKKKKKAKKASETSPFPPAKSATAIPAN
UniProt Q96SW2: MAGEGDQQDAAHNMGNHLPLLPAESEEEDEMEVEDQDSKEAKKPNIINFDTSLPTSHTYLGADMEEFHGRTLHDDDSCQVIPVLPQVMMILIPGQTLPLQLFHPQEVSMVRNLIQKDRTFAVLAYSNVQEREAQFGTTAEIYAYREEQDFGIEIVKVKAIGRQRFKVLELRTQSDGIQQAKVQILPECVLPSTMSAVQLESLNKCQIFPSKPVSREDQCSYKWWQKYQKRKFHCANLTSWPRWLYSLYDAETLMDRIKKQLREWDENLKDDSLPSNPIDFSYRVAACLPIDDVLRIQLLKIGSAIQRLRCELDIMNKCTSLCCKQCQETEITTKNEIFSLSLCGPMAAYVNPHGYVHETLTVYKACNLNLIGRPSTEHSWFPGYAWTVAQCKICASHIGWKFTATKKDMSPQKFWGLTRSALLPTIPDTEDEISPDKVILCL
UniProt P55060: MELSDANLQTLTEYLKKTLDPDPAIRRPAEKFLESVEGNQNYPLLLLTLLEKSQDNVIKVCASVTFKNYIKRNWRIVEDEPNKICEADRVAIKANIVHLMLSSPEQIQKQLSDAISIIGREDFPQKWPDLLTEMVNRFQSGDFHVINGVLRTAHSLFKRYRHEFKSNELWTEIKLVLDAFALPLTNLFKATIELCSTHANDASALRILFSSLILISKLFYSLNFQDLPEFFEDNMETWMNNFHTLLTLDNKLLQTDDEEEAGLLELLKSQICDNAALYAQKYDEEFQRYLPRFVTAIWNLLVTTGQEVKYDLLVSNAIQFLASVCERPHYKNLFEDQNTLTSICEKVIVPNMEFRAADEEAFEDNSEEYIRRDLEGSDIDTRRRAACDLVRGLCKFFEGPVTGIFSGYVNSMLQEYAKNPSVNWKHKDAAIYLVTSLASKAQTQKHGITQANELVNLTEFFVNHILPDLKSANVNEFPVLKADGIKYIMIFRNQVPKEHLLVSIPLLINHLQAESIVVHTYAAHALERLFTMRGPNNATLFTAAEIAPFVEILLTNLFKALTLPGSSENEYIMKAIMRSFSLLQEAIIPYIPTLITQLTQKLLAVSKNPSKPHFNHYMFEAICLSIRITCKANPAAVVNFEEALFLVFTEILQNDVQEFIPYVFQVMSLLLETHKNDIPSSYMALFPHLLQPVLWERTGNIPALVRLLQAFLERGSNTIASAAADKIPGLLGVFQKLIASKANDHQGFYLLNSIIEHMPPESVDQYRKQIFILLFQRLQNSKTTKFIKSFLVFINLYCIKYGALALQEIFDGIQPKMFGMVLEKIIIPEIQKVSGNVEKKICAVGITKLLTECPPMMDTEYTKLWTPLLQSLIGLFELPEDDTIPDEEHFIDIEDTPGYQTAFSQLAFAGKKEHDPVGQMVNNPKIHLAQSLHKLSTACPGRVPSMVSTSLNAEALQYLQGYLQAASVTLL
UniProt O60716: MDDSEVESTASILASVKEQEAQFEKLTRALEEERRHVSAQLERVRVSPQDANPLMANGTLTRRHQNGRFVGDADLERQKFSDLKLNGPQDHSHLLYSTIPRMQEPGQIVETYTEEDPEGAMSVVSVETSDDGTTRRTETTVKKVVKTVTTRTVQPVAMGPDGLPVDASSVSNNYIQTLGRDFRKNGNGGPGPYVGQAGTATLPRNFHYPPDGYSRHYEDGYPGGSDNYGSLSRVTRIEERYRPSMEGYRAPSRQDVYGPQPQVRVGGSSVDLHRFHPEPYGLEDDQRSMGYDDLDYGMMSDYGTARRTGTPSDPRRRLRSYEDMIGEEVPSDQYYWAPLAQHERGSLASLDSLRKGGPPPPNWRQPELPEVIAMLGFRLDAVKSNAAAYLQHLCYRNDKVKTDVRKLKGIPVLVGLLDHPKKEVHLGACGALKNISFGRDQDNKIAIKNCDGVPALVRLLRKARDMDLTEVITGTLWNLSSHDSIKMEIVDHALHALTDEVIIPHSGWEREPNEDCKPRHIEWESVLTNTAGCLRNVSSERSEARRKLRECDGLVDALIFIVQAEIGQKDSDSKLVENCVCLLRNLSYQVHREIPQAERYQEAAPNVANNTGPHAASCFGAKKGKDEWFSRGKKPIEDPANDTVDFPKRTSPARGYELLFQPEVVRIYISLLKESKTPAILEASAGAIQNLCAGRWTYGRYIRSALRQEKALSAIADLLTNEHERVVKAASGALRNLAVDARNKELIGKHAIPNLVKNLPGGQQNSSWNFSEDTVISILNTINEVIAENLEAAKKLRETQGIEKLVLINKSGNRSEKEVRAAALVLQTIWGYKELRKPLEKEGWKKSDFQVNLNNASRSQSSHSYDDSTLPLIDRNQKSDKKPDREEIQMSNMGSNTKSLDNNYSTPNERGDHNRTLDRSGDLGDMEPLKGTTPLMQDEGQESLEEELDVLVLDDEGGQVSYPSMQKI
UniProt P41240: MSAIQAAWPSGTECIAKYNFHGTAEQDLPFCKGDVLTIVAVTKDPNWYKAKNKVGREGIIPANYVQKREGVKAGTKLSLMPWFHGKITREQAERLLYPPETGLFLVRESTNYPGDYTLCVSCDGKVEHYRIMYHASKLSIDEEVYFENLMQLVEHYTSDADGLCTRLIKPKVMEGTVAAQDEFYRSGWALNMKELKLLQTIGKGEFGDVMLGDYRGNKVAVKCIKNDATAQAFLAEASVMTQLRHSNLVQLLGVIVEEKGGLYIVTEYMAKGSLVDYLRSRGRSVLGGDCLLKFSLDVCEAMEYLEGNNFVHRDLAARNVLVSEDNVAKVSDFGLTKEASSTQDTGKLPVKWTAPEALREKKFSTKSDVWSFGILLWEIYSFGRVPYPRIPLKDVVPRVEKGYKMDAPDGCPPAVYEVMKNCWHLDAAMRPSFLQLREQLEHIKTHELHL
UniProt Q05048: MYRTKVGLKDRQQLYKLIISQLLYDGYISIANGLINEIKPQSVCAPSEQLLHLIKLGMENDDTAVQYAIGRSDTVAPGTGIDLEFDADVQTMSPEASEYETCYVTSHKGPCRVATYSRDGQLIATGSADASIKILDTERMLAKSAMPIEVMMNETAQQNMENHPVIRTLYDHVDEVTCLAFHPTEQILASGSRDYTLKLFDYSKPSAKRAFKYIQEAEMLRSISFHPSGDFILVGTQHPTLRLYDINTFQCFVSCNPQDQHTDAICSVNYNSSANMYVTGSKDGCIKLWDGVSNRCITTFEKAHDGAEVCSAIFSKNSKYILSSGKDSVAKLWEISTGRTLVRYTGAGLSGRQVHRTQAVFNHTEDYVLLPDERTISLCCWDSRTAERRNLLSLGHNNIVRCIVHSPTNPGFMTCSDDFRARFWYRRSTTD
UniProt P16220: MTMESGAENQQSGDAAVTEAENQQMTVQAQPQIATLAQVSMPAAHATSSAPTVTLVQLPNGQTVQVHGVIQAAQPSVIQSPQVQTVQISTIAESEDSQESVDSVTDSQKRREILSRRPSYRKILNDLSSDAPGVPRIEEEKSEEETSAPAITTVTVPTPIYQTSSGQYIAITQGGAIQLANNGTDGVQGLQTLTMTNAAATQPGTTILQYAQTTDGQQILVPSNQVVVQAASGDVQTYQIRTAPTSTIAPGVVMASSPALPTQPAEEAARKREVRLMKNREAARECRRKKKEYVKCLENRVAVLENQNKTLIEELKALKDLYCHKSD
UniProt Q93034, whole entry, looked up: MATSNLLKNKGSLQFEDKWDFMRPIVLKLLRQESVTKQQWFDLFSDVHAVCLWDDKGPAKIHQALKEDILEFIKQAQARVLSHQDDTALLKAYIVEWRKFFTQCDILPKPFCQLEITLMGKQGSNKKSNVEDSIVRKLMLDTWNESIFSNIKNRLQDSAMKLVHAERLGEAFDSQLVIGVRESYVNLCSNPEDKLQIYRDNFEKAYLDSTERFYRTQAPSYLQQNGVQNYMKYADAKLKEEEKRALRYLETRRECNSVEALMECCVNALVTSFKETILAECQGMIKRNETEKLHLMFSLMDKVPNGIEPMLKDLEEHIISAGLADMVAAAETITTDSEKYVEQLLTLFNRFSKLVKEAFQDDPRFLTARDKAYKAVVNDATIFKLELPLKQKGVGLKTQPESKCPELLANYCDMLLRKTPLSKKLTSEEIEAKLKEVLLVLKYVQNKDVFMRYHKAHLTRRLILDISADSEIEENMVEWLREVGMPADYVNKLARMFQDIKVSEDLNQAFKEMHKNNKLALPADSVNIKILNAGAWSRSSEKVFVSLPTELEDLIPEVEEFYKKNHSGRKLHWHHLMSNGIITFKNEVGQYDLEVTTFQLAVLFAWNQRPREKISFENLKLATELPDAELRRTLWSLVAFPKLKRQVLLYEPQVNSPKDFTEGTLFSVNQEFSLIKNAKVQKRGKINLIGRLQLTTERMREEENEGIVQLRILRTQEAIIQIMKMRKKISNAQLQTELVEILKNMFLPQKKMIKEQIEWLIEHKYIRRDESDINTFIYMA
UniProt Q13617, whole entry, looked up: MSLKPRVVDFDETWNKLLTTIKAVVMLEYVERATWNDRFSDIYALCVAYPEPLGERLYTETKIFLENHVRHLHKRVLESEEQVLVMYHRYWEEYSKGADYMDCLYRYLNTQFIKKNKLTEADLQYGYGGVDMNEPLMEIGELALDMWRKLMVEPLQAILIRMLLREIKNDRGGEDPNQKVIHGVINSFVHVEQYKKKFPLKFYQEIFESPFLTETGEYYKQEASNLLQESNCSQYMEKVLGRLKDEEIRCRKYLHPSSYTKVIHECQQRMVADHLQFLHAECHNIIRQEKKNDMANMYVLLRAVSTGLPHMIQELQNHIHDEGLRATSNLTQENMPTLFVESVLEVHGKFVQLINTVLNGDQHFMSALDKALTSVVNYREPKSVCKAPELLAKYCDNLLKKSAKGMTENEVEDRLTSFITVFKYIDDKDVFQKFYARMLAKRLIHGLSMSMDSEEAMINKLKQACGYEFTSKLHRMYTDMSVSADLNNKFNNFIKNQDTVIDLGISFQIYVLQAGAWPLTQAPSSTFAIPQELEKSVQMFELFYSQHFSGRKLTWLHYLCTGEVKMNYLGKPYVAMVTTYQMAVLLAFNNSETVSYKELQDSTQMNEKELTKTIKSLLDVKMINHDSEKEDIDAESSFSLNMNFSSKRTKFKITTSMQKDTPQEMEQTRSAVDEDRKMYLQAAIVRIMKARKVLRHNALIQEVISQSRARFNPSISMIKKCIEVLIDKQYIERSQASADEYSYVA

Experiments:
Assay in all cases: log2 fold change, soluble protein after heating vs DMSO (PISA); higher = thermal stabilisation; K562 lysate, 10 uM; active = over 0.2 and 3.5 SD of the protein, either way, in both replicates (recomputed)
[1] = compound: CS(=O)(=O)CCNCc1ccc(-c2ccc3ncnc(Nc4ccc(OCc5cccc(F)c5)c(Cl)c4)c3c2)o1 [lapatinib]
Outline: (§1)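 Thermal stability, expressed as log-two fold change relative to solvent controls, is given from duplicates. Crude K562 extract in PBS pH 7.4 with 1 mM MgCl2, at 1 mg/mL protein, was treated with 10 μM compound for 30 min and heated in aliquots for 3 min across 48°C-58°C. After pooling, adjustment to 0.5% NP-40 at 4°C and centrifugation at 21,000xg for 90 min, supernatant protein was measured by TMTpro 16plex LC-MS/MS with channel sums equalised.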

[2] = compound: CS(=O)(=O)N1CCN(Cc2cc3nc(-c4cccc5[nH]ncc45)nc(N4CCOCC4)c3s2)CC1 [pictilisib]
Outline: as §1

[3] = compound: C[C@@H](Oc1cc(-c2cnn(C3CCNCC3)c2)cnc1N)c1c(Cl)ccc(F)c1Cl [crizotinib]
Outline: as §1

[4] = compound: C[C@H](C1=CC=C(C=C1)C(=O)NC2=C3C=CNC3=NC=C2)N
Outline: as §1

[5] = compound: C[C@H](Nc1ncnc2nc[nH]c12)c1cc2cccc(Cl)c2c(=O)n1-c1ccccc1 [duvelisib]
Outline: as §1

[6] = compound: Cc1cc(Nc2cc(CN3CCOCC3)c3nc(C)c(Cc4ccc(Cl)cc4F)n3n2)n[nH]1 [gandotinib]
Outline: as §1

[7] = compound: Cc1cc(Nc2cc(N3CCN(C)CC3)nc(Sc3ccc(NC(=O)C4CC4)cc3)n2)n[nH]1 [tozasertib]
Outline: as §1

[8] = compound: Cc1ccc(-n2nc(C(C)(C)C)cc2NC(=O)Nc2ccc(OCCN3CCOCC3)c3ccccc23)cc1 [doramapimod]
Outline: as §1

[9] = compound: Cc1ccc(NC(=O)c2ccc(CN3CC[C@H](N(C)C)C3)c(C(F)(F)F)c2)cc1Nc1nccc(-c2cncnc2)n1 [bafetinib]
Outline: as §1

[10] = compound: Cc1cccc(CC(=O)N2CCc3c2ccc(-c2cn(C)c4ncnc(N)c24)c3F)n1
Outline: as §1

[11] = compound: Cc1cn(-c2cc(NC(=O)c3ccc(C)c(Nc4nccc(-c5cccnc5)n4)c3)cc(C(F)(F)F)c2)cn1 [nilotinib]
Outline: as §1

[12] = compound: Cc1nc(Nc2n[nH]c3c2CN(C(=O)N[C@H](CN(C)C)c2ccccc2)C3(C)C)c2sccc2n1
Outline: as §1

[13] = compound: Cc1nc(Nc2ncc(C(=O)Nc3c(C)cccc3Cl)s2)cc(N2CCN(CCO)CC2)n1 [dasatinib]
Outline: as §1

[14] = compound: Cc1ncc(-c2ccnc(Nc3ccc(S(C)(=O)=O)cc3)n2)n1C(C)C
Outline: as §1

[15] = compound: Cn1cc(-c2ccc3c(c2)CCN3C(=O)Cc2cccc(C(F)(F)F)c2)c2c(N)ncnc21
Outline: as §1

[16] = compound: Cn1cc(CNCC2CCN(c3ncc(C(=O)NO)cn3)CC2)c2ccccc21 [quisinostat]
Outline: as §1

[17] = compound: Cn1cncc1[C@@](N)(c1ccc(Cl)cc1)c1ccc2c(c1)c(-c1cccc(Cl)c1)cc(=O)n2C [tipifarnib]
Outline: as §1

[18] = compound: NC(=O)Nc1cc(-c2cccc(F)c2)sc1C(=O)N[C@H]1CCCNC1
Outline: as §1

[19] = compound: NC(=O)c1cnc(N[C@@H]2CCCC[C@@H]2N)nc1Nc1cccc(-n2nccn2)c1
Outline: as §1

[20] = compound: NC1(c2ccc(-c3nc4ccn5c(=O)[nH]nc5c4cc3-c3ccccc3)cc2)CCC1
Outline: as §1

Target | log2 fold change [1] | log2 fold change [2] | log2 fold change [3] | log2 fold change [4] | log2 fold change [5] | log2 fold change [6] | log2 fold change [7] | log2 fold change [8] | log2 fold change [9] | log2 fold change [10] | log2 fold change [11] | log2 fold change [12] | log2 fold change [13] | log2 fold change [14] | log2 fold change [15] | log2 fold change [16] | log2 fold change [17] | log2 fold change [18] | log2 fold change [19] | log2 fold change [20]
CUL7 isoform 2 (UniProt Q14999) | inactive: 0.021 | inactive: -0.014 | inactive: -0.016 | inactive: 0.15 | inactive: -0.073 | inactive: -0.097 | inactive: -0.054 | inactive: -0.047 | inactive: -0.095 | inactive: -0.01 | inactive: 0.034 | inactive: 0.01 | inactive: 0.048 | inactive: -0.025 | inactive: 0.003 | inactive: -0.063 | inactive: -0.025 | inactive: 0.113 | inactive: -0.004 | inactive: 0.014
CRKL (UniProt P46109) | inactive: -0.013 | inactive: 0 | inactive: 0.011 | inactive: -0.017 | inactive: 0.02 | inactive: 0.049 | inactive: -0.003 | inactive: -0.007 | inactive: 0.003 | inactive: 0.036 | inactive: 0.019 | inactive: 0.004 | inactive: 0.002 | inactive: -0.013 | inactive: -0.013 | inactive: -0.019 | inactive: 0.014 | inactive: -0.013 | inactive: -0.005 | inactive: 0.015
CTNNB1 (UniProt P35222) | inactive: -0.034 | inactive: 0.006 | inactive: 0.012 | inactive: -0.008 | inactive: 0.054 | inactive: 0.013 | inactive: 0.012 | inactive: -0.102 | inactive: -0.018 | inactive: -0.043 | inactive: -0.056 | inactive: 0.011 | inactive: 0.053 | inactive: -0.08 | inactive: 0.022 | inactive: 0.016 | inactive: 0.044 | inactive: -0.037 | inactive: -0.048 | inactive: 0.043
CUSTOS (UniProt Q96C57) | inactive: -0.003 | inactive: 0.01 | inactive: -0.015 | inactive: 0.006 | inactive: -0.01 | inactive: 0.097 | inactive: -0.015 | inactive: 0.031 | inactive: -0.024 | inactive: 0.002 | inactive: 0.061 | inactive: -0.005 | inactive: 0.025 | inactive: -0.034 | inactive: -0.007 | inactive: -0.039 | inactive: -0.021 | inactive: 0.027 | inactive: 0.002 | inactive: 0.033
CSNK1D (UniProt P48730) | inactive: -0.098 | inactive: 0.066 | inactive: 0.052 | inactive: -0.153 | inactive: 0.007 | inactive: 0.059 | inactive: 0.008 | inactive: -0.011 | inactive: -0.01 | inactive: -0.177 | inactive: 0.199 | inactive: -0.384 | inactive: 0.028 | active: -0.551 | inactive: -0.059 | inactive: -0.049 | inactive: -0.139 | inactive: 0.021 | inactive: 0.072 | 
CYB5R2 (UniProt Q6BCY4) | inactive: -0.004 | inactive: 0.006 | inactive: -0.008 | inactive: -0.07 | inactive: 0.055 | inactive: 0.072 | inactive: 0 | inactive: -0.012 | inactive: -0.012 | inactive: 0.052 | inactive: 0.011 | inactive: -0.011 | inactive: 0.026 | inactive: -0.027 | inactive: -0.041 | inactive: -0.054 | inactive: -0.007 | inactive: 0.023 | inactive: 0.022 | inactive: -0.013
CRBN (UniProt Q96SW2) | inactive: 0.02 | inactive: 0.014 | inactive: -0.017 | inactive: -0.098 | inactive: 0.007 | inactive: 0.046 | inactive: 0.044 | inactive: 0.032 | inactive: -0.07 | inactive: 0.095 | inactive: 0.007 | inactive: -0.012 | inactive: 0.006 | inactive: 0.016 | inactive: 0.008 | inactive: -0.015 | inactive: -0.017 | inactive: 0 | inactive: 0 | inactive: 0.02
CSE1L (UniProt P55060) | inactive: -0.04 | inactive: -0.006 | inactive: -0.014 | inactive: -0.038 | inactive: -0.005 | inactive: -0.073 | inactive: -0.018 | inactive: 0.009 | inactive: -0.022 | inactive: 0.005 | inactive: -0.005 | inactive: -0.008 | inactive: -0.051 | inactive: 0.012 | inactive: 0.003 | inactive: 0.04 | inactive: -0.012 | inactive: 0.019 | inactive: 0.014 | inactive: 0.013
CTBP1 (UniProt Q13363) | inactive: -0.007 | inactive: 0.004 | inactive: -0.021 | inactive: -0.012 | inactive: 0.007 | inactive: 0.025 | inactive: -0.005 | inactive: -0.015 | inactive: 0.02 | inactive: 0.008 | inactive: 0.047 | inactive: 0.004 | inactive: -0.015 | inactive: 0.037 | inactive: -0.032 | inactive: -0.044 | inactive: 0.209 | inactive: 0.032 | inactive: 0.016 | inactive: 0.007
CTSB (UniProt P07858) | inactive: -0.004 | inactive: -0.034 | inactive: -0.022 | inactive: -0.05 | inactive: 0.009 | inactive: 0.025 | inactive: 0.009 | inactive: -0.057 | inactive: -0.05 | inactive: 0.015 | inactive: -0.031 | inactive: -0.009 | inactive: 0.024 | inactive: 0.022 | inactive: -0.013 | inactive: 0.036 | inactive: 0.028 | inactive: 0.014 | inactive: -0.006 | inactive: -0.022
CTNND1 isoform 3 (UniProt O60716) | inactive: -0.019 | inactive: -0.047 | inactive: -0.039 | inactive: -0.006 | inactive: 0.008 | inactive: -0.001 | inactive: 0.002 | inactive: 0.007 | inactive: -0.025 | inactive: 0.04 | inactive: -0.027 | inactive: -0.02 | inactive: 0.006 | inactive: -0.017 | inactive: 0.009 | inactive: -0.065 | inactive: -0.06 | inactive: 0.027 | inactive: 0.065 | inactive: -0.065
CSK (UniProt P41240) | inactive: -0.022 | inactive: -0.017 | inactive: 0.259 | inactive: -0.075 | inactive: -0.026 | inactive: 0.377 | inactive: 0.098 | inactive: -0.005 | inactive: 0.41 | inactive: 0 | inactive: 0.144 | inactive: 0.125 | active: 0.578 | inactive: 0.002 | inactive: 0.102 | inactive: -0.08 | inactive: -0.041 | active: 0.646 | inactive: 0.071 | inactive: -0.043
CSTF1 (UniProt Q05048) | inactive: -0.011 | inactive: -0.002 | inactive: -0.002 | inactive: -0.033 | inactive: 0.004 | inactive: 0.023 | inactive: 0.005 | inactive: -0.039 | inactive: -0.02 | inactive: -0.022 | inactive: -0.023 | inactive: 0.009 | inactive: 0.035 | inactive: -0.028 | inactive: 0.002 | inactive: -0.005 | inactive: 0.037 | inactive: 0.035 | inactive: -0.035 | inactive: 0.019
CREB1 (UniProt P16220) | inactive: -0.018 | inactive: 0.041 | inactive: 0.063 | inactive: 0.002 | inactive: -0.036 | inactive: -0.008 | inactive: 0.068 | inactive: 0.013 | inactive: 0.033 | inactive: -0.038 | inactive: 0.033 | inactive: 0.01 | inactive: -0.02 | inactive: 0.048 | inactive: -0.003 | inactive: 0.004 | inactive: 0.048 | inactive: -0.011 | inactive: -0.021 | inactive: 0.021
CUL5 (UniProt Q93034) | inactive: -0.017 | inactive: 0.006 | inactive: 0.005 | inactive: -0.071 | inactive: -0.012 | inactive: 0.025 | inactive: -0.001 | inactive: 0.016 | inactive: -0.019 | inactive: 0.04 | inactive: 0 | inactive: -0.035 | inactive: 0.007 | inactive: -0.009 | inactive: 0.026 | inactive: -0.006 | inactive: 0.014 | inactive: -0.007 | inactive: 0.001 | inactive: 0.001
CUL2 isoform 2 (UniProt Q13617) | inactive: -0.018 | inactive: -0.027 | inactive: 0.008 | inactive: 0.008 | inactive: 0.002 | inactive: -0.055 | inactive: -0.014 | inactive: -0.007 | inactive: 0.013 | inactive: -0.023 | inactive: 0.016 | inactive: 0.011 | inactive: -0.009 | inactive: 0 | inactive: 0.015 | inactive: 0.018 | inactive: 0.012 | inactive: -0.003 | inactive: -0.013 | inactive: 0.016

Individual results from the entries so far.
In log2 fold change [16], CTBP1 (UniProt Q13363) has inactive: -0.044
In log2 fold change [19], CSE1L (UniProt P55060) has inactive: 0.014
